PubChem BioAssay AID493246, Drosophila RNAi Screening Center, 2011
Aim: 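Identify essential fly genes by loss of cell viability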 (primary screen). System: Drosophila Kc and S2R+ cells. Reagent: long dsRNA against Drosophila genes. Measured: 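Raw, unnormalised count of remaining cells in each well; per-plate z-scores of cell number underlie the calls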. Scale: Kc cell number and S2R+ cell number: higher = more cells remaining. Hit rule: 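Active when the per-plate z-score of cell number is 3 or more in the direction of fewer cells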.
The deposit covers about 21,000 reagents; shown is a random part of those with a known target gene and a result. Over the whole deposit, 429 (2%) got an active call. 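Values are raw and not normalised between plates; calls rest on per-plate z-scores that were not deposited.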 A plus sign joins genes that one reagent is predicted to hit. Not stated in the record: the amount of reagent, the time to read-out.

predicted target	DRSC id	Kc cell number, rep 1	Kc cell number, rep 2	S2R+ cell number, rep 1	S2R+ cell number, rep 2	outcome
CG6287	DRSC02947	1.39e6	1.50e6	1.28e6	1.23e6	inactive
CG30271	DRSC04170	1.50e6	1.54e6	1.28e6	1.36e6	inactive
CG12576	DRSC20621	1.57e6	1.64e6	1.05e6	1.16e6	inactive
CG15308	DRSC17995	1.59e6	1.50e6	1.15e6	1.28e6	inactive
BaraB (Baramicin B)	DRSC06420	1.50e6	1.57e6	1.26e6	1.34e6	inactive
Nos (Nitric oxide synthase)	DRSC03381	1.27e6	1.34e6	1.10e6	1.10e6	inactive
galla-1	DRSC05987	1.41e6	1.32e6	9.94e5	1.23e6	inactive
Lgr1 (Leucine-rich repeat-containing G protein-coupled receptor 1)	DRSC16675	1.35e6	1.40e6	1.04e6	1.16e6	inactive
Lcp1 (Larval cuticle protein 1)	DRSC07455	1.44e6	1.80e6	1.23e6	1.39e6	inactive
mtm (myotubularin)	DRSC03576	1.17e6	1.30e6	4.47e5	6.98e5	inactive
CG4497	DRSC02754	1.20e6	1.25e6	6.40e5	6.91e5	inactive
Cht8 (Chitinase 8)	DRSC04546	1.57e6	1.67e6	1.28e6	4.08e5	inactive
Cow	DRSC14680	1.38e6	1.36e6	1.01e6	1.04e6	inactive
Gdi (GDP dissociation inhibitor)	DRSC03330	1.35e6	1.42e6	1.15e6	1.07e6	inactive
CG1632	DRSC17558	1.15e6	1.31e6	1.07e6	1.12e6	inactive
CG1632	DRSC18110	1.52e6	1.55e6	1.07e6	1.22e6	inactive
CG9067	DRSC07328	1.51e6	1.53e6	1.16e6	1.33e6	inactive
vri (vrille)	DRSC03633	1.47e6	1.47e6	8.93e5	1.04e6	inactive
Tsp (Thrombospondin)	DRSC02144	1.08e6	1.32e6	6.47e5	6.63e5	inactive
Tsp (Thrombospondin)	DRSC02145	1.52e6	1.39e6	1.15e6	1.30e6	inactive
ana2 (anastral spindle 2)	DRSC05952	1.35e6	1.42e6	1.21e6	1.27e6	inactive
kri (krishah)	DRSC10515	1.46e6	1.54e6	1.14e6	9.19e5	inactive
polyph (polyphemus)	DRSC06254	1.76e6	1.66e6	1.32e6	1.51e6	inactive
RpL17 (Ribosomal protein L17)	DRSC18293	3.31e5		5.55e5		inactive
CG15891 + CG15892	DRSC18095	5.58e5		8.67e5		inactive
CG15891 + CG15892	DRSC18096	1.51e6	1.48e6	1.05e6	1.17e6	inactive
CG32572	DRSC19525	1.44e6	1.44e6	1.09e6	1.14e6	inactive
CG32572	DRSC19526	1.42e6	1.39e6	1.08e6	1.13e6	inactive
CG42788	DRSC15330	1.23e6	1.24e6	1.19e6	1.31e6	inactive
CG42788	DRSC16139	1.30e6	1.43e6	1.15e6	1.38e6	inactive
CG42788	DRSC16152	1.26e6	1.31e6	1.24e6	1.36e6	inactive
noc (no ocelli)	DRSC03580	1.29e6	1.33e6	1.33e6	1.32e6	inactive
Octalpha2R (alpha2-adrenergic-like octopamine receptor)	DRSC13319	1.61e6	1.57e6	1.02e6	1.15e6	inactive
Octalpha2R (alpha2-adrenergic-like octopamine receptor)	DRSC15314	9.17e5	1.11e6	8.38e5	8.74e5	inactive
CG6294 + CG6299	DRSC19980	1.50e6	1.44e6	1.06e6	1.15e6	inactive
CG13155	DRSC06280	1.53e6	1.56e6	1.19e6	1.32e6	inactive
CG16739	DRSC06621	1.83e6	1.83e6	1.10e6	1.38e6	inactive
HemK2 + Snapin	DRSC00736	1.27e6	1.32e6	6.13e5	5.57e5	inactive
HemK2 + Snapin	DRSC00737	1.61e6	1.63e6	1.18e6	1.34e6	inactive
CG4968	DRSC02794	1.58e6	1.63e6	1.11e6	1.21e6	inactive
CG17085 (retired record)	DRSC02565	1.75e6	1.78e6	1.14e6	1.31e6	inactive
CG17085 (retired record)	DRSC02566	1.60e6	1.68e6	1.14e6	1.25e6	inactive
CG2887	DRSC18235	1.57e6	1.50e6	1.05e6	1.13e6	inactive
CG11378	DRSC18627	1.57e6	1.63e6	1.09e6	1.16e6	inactive
CG9254	DRSC01969	1.65e6	1.64e6	1.33e6	1.48e6	inactive
CG6441	DRSC02957	1.72e6	1.77e6	1.26e6	1.45e6	inactive
prc (pericardin)	DRSC11385	1.26e6	1.24e6	1.26e6	1.37e6	inactive
GlnRS (Glutaminyl-tRNA synthetase)	DRSC14140	5.42e5		8.37e5		inactive
E23 (Early gene at 23)	DRSC00425	1.07e6	7.85e5	5.69e5	6.93e5	active
E23 (Early gene at 23)	DRSC00593	1.46e6	1.41e6	1.14e6	1.30e6	inactive
p23	DRSC15158	1.56e6	1.59e6	1.22e6	1.30e6	inactive
IntS12 (Integrator 12)	DRSC15818	1.33e6	1.35e6	9.25e5	1.03e6	inactive
Ddc (Dopa decarboxylase)	DRSC03314	1.54e6	1.59e6	1.21e6	3.65e5	inactive
CG6083	DRSC10580	1.31e6	1.46e6	1.19e6	1.26e6	inactive
Ugalt (UDP-galactose transporter)	DRSC18467	1.76e6	1.82e6	1.10e6	1.26e6	inactive
capt (capulet)	DRSC00676	1.60e6	1.64e6	1.07e6	1.24e6	inactive
capt (capulet)	DRSC00806	1.49e6	1.55e6	1.03e6	1.18e6	inactive
Pino (Pinocchio)	DRSC00038	1.08e6	1.10e6	7.85e5	8.89e5	active
Pino (Pinocchio)	DRSC00662	1.25e6	1.30e6	8.97e5	1.02e6	inactive

Targets above whose gene name starts with H or h:
predicted target	DRSC id	Kc cell number, rep 1	Kc cell number, rep 2	S2R+ cell number, rep 1	S2R+ cell number, rep 2	outcome
HemK2 + Snapin	DRSC00736	1.27e6	1.32e6	6.13e5	5.57e5	inactive
HemK2 + Snapin	DRSC00737	1.61e6	1.63e6	1.18e6	1.34e6	inactive
